PubChem BioAssay AID504467 (National Center for Advancing Translational Sciences (NCATS), 2011)
Out of some 330,000 compounds screened, about 7,700 (2.3%) were called active. This list was built around the results that the source calls inconclusive (neither active nor inactive); the mix of calls is not that of the screen. Calls come from the whole dose curve; as a rule, active = well fitted inhibition curve with a large enough effect; inconclusive = small, poorly fitted or top-dose-only effect, or effect the other way; inactive = flat fitted curve, though single readings scatter. Potencies beside an inconclusive call are fits to weak or partial responses and may not hold up.

Assay: qHTS screen for small molecules that inhibit ELG1-dependent DNA repair in human embryonic kidney (HEK293T) cells expressing luciferase-tagged ELG1; note: nearly all actives have a fitted effect of over 55% in size
Conditions: HEK293T ELG1-luciferase reporter, luminescence, 16 h, DNA damage induced by 5-fluorouridine; activity change, negative = inhibition: at 46.1 µM (top of the series)
How it was run: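 DMSO vehicle served as the neutral condition. Each well held 2,000 cells given 5-fluorouridine plus compound; after 16 hr at 37 °C/5% CO2, ONE-Glo was added and luciferase measured 30 min later.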
% is set by controls: 0 for no effect and ±100 for the full control effect; potency is the fitted concentration of half-maximal effect.

| SMILES | activity change, negative = inhibition | Potency |
| --- | --- | --- |
| COC(=O)c1ccc(NC(=O)CSC2=NCCN2)cc1 | inactive: -16.7% | – |
| CCc1ccc(/C=C2\Oc3c(ccc(O)c3CN3CCN(C)CC3)C2=O)cc1 | – | inconclusive: 29.1 µM [activator, single point] |
| Cc1ccsc1C(=O)Nc1ccc2c(c1)OCCO2 | – | inconclusive: 1.84 µM [activator, full curve] |
| COc1cccc(-c2nc(-c3ccc(Br)o3)no2)c1 | – | inconclusive: 2.06 µM [activator, full curve] |
| CN(C)C(=O)CN1C(=O)NC2(CCCc3ccccc32)C1=O (stereo not given) | inactive: -1.96% | – |
| Cc1ccc(NC(=O)CSc2nc3ccccc3c(=O)n2CCCC(=O)N2CCCC2)cc1 | inactive: -18% | – |
| CC(C)(C)N=C1NN=C(c2cc3ccccc3o2)CS1 | – | inconclusive: 2.31 µM [activator, partial curve] |
| CC(=O)c1ccccc1OCc1ccc(S(=O)(=O)Cc2ccccc2)cc1 | – | inconclusive: 29.1 µM [inhibitor, single point] |
| CCCCn1c(SCC(=O)c2ccc(OCC)cc2)nc2cc(S(N)(=O)=O)ccc21 | – | inconclusive: 18.4 µM [inhibitor, single point] |
| O=C(OCCOc1ccccc1)c1cccc(S(=O)(=O)N2CCOCC2)c1 | inactive: -13.2% | – |
| O=C(NCc1ccccc1)c1ccc(C(=O)N(C2CCCCC2)C2CCCCC2)cc1 | – | inconclusive: 25.9 µM [inhibitor, partial curve, poor fit] |
| Cc1ccc(NC(=O)COC(=O)C2CC2)cc1S(=O)(=O)N1CCOCC1 | inactive: 10.1% | – |
| CN(C)S(=O)(=O)c1ccc(Cl)c(NC(=O)CN2CCc3ccccc3C2)c1 | – | inconclusive: 23.1 µM [inhibitor, single point] |
| Cc1cc(=O)[nH]c(S/C=C/c2ccccc2)n1 | – | inconclusive: 8.2 µM [activator, partial curve] |
| COc1ccc(NC(=O)CN(C)C(=O)c2ccc(COc3ccccc3)cc2)cc1 | inactive: -16% | – |
| CCOC(=O)c1ccc(NS(=O)(=O)c2cn(C)cn2)cc1 | inactive: 4.85% | – |
| O=C(Nc1ccc2c(c1)CCCN2C(=O)c1cccs1)c1cccc(F)c1 | – | inconclusive: 3.66 µM [inhibitor, partial curve, poor fit] |
| Cc1sc(NC(=S)NC(=O)C2CCCCC2)c(C(N)=O)c1C | – | inconclusive: 32.6 µM [activator, partial curve, poor fit] |
| O[C@@H]1CN(C2CCCCC2)CC[C@H]1N1CCN(CCc2ccccc2)CC1 | inactive: -3.95% | – |
| CN(C)/C=C/C(=O)c1cnc(-c2cccc(Cl)c2)s1 | – | inconclusive: 18.3 µM [activator, partial curve] |

An excerpt of these results, as comma-separated lines.
SMILES,"activity change, negative = inhibition",Potency
Cc1ccsc1C(=O)Nc1ccc2c(c1)OCCO2,–,"inconclusive: 1.84 µM [activator, full curve]"
CCOC(=O)c1ccc(NS(=O)(=O)c2cn(C)cn2)cc1,inactive: 4.85%,–
